# From patent publication US20080220471A1, “Vectors and Methods Using Same” (Genentech, Inc., priority 2005, published 2008)
# At least one structure is not confirmed: it was looked up by name or label, or the drawing left a doubt.
# System: luciferase
# Assay: In vivo bioluminescence imaging of luciferase knock-down in s.c. SVT2 pHUSH shLUC tumors
# Design: species or system mice
structure (smiles),measurement,setting,value
"C[C@H]1c2cccc(O)c2C(=O)C2=C(O)[C@]3(O)C(=O)C(C(N)=O)=C(O)[C@@H](N(C)C)[C@@H]3[C@@H](O)[C@@H]21 [Dox, 1-dimethylamino-2,4-a,5,7,12-pentahydroxy-11-methyl-4,6-dioxo-1,4a,11,11a,12,12a-hexahydrotetracene-3-carboxamide]",luciferase activity compared with control animals,0.01 mg/ml Dox in drinking water,comparable to that of control animals
same,luciferase activity compared with control animals,0.1 mg/ml Dox in drinking water,almost complete reduction of luciferase activity
same,luciferase activity compared to control animals,1.0 mg/ml Dox in drinking water,reduced luciferase activity
